Results published in article PMC7819943, “Rice protein-binding microarrays: a tool to detect cis-acting elements near promoter regions in rice”.
This is one part of the list.

By UniProt entry, the sequences of proteins in these tests, tags left out.
UniProt Q0JBA9, entry or part of it: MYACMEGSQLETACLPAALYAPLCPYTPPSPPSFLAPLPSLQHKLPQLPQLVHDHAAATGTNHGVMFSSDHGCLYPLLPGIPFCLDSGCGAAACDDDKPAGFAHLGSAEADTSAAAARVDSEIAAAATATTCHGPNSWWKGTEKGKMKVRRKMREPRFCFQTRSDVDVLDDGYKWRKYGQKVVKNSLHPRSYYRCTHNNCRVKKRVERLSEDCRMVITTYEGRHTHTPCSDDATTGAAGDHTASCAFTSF

These sequences were tested against OsWRKY34 (Oryza sativa, UniProt Q0JBA9 1-250) (assay: protein-binding microarray (RPBM); PBS, 2% BSA, 51.3 ng/ul salmon testes DNA, 50 uM zinc acetate, 200 nM TF, 25 C, 1 h; high values mean tight binding). Conditions: protein: recombinant; tags: N-terminal polyhistidine and DsRed monomer fusion (pET32a); label: CyDye5-dUTP incorporated in the synthesized complementary strand; 3' TTTTT single-stranded linker to array surface; dsDNA, one strand shown.
Summary of the method: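 A custom Agilent array was converted to double-stranded form by primer extension with Cy5-dUTP and blocked with 2% BSA. Protein at 200 nM in PBS with 2% BSA, salmon testes DNA and 50 µM zinc acetate was applied for 1 h at 25 °C, followed by washing. The proteins were polyhistidine–DsRed N-terminal fusions of transcription factors, expressed in E. coli BL21-CodonPlus and Ni–NTA-purified. The binding signal is per-feature fluorescence intensity (arbitrary units) from an Axon 4000B scanner.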

Sequence	binding signal
AAACTTTCCTACACACATAAACTTCCAACTTTTTTATCACCGGAGTCACCTAGTGCAG	8030 fluorescence intensity (a.u.)
ATATACTTAGGTCCTGTTTGGGGCAGTTTAAAATTTTGGGCGGAGTCACCTAGTGCAG	9370 fluorescence intensity (a.u.)
CCTAGACTTCCTCTCTCTCGCGTCGCGCTCGCCTTCGCCTCGGAGTCACCTAGTGCAG	8820 fluorescence intensity (a.u.)
CCGGTCGTTTCCCGTATTGTTGGCATATATGTACACGGAGCGGAGTCACCTAGTGCAG	8030 fluorescence intensity (a.u.)
CTGCTTGTGCATGTGTGACACTTTTCTTTATTGAGCAAGCCGGAGTCACCTAGTGCAG	9520 fluorescence intensity (a.u.)
ACCACCCCACAACCCCACCGTGCACCACGCCCACCACGTGCGGAGTCACCTAGTGCAG	8540 fluorescence intensity (a.u.)
AACGGGTTGTTTTGGTTTTGCTGATGTACGACATATCAAGCGGAGTCACCTAGTGCAG	9200 fluorescence intensity (a.u.)
TCCCACGTCTCCGCTTCCAATCCAATCGAACTCAAATCAACGGAGTCACCTAGTGCAG	8480 fluorescence intensity (a.u.)
GGCTGGTGGTTTGTTGATGTGGAGCCCGGCCCGGCCGCACCGGAGTCACCTAGTGCAG	11900 fluorescence intensity (a.u.)
TAGGGGTGGGCATTCGGTCTAACTGAAAATTTCGGTCTCGCGGAGTCACCTAGTGCAG	13500 fluorescence intensity (a.u.)
TTTGTGCTGTGTTGTTTCTCTGTATCAATTGACACATTCTCGGAGTCACCTAGTGCAG	8040 fluorescence intensity (a.u.)
CATCTATGACCCATTTTTTTTTATTTGACTGATACCCATCCGGAGTCACCTAGTGCAG	9760 fluorescence intensity (a.u.)
CGGTCTATCTGGGGTGAACTTTCTCCTAACATCGGTAATTCGGAGTCACCTAGTGCAG	8500 fluorescence intensity (a.u.)
ATCCTTTTGCTTATGGTTATGCTTATCTGTATGGCTTATTCGGAGTCACCTAGTGCAG	13000 fluorescence intensity (a.u.)
TCCGCGGCCGCTCCGCCACTTCCGTCCAGAGACGCGCCTCCGGAGTCACCTAGTGCAG	9700 fluorescence intensity (a.u.)
ATCAACTCCTATATCTCATAAAAAAATGTTTTTTTCCCCTCGGAGTCACCTAGTGCAG	8480 fluorescence intensity (a.u.)
TACTTCAACCACCCCTACGCATTCAACTCCATTCTACTCTCGGAGTCACCTAGTGCAG	9460 fluorescence intensity (a.u.)
GCATTTGGTTGTTGCTGTGGACTCTGGATGATTTTTTTTACGGAGTCACCTAGTGCAG	14000 fluorescence intensity (a.u.)
ACTATTTTTTTCTCTTTTCAGTCTTCAAATATTATGCTACCGGAGTCACCTAGTGCAG	10700 fluorescence intensity (a.u.)
TCAACGGTTTCAGGCCTACTTCTCTTCCTCACGCGCGCTGCGGAGTCACCTAGTGCAG	8710 fluorescence intensity (a.u.)
TCCTCGCCACCGCCGCCGTGTTCCTCTTCCACCGCCGGACCGGAGTCACCTAGTGCAG	8500 fluorescence intensity (a.u.)
GCTTAATTACATGGGAGAGGCTTTGTTTCTTGTTTATTTTCGGAGTCACCTAGTGCAG	8760 fluorescence intensity (a.u.)
GGGGAGGGCAGCGGCGGCGGCGAGGCACGTAGTGCTTTTTCGGAGTCACCTAGTGCAG	8050 fluorescence intensity (a.u.)
TTGACTAATTTTCTGGTTACGCATTTCGATCAGGTTTCATCGGAGTCACCTAGTGCAG	8240 fluorescence intensity (a.u.)
TATTTGTTCGTGACTCTACACTTCTTTTGCCTATTCATCTCGGAGTCACCTAGTGCAG	14200 fluorescence intensity (a.u.)
GATTTTTTCGGACTTGGTCTCGGTCTTTTTGTTTGGTTATCGGAGTCACCTAGTGCAG	10200 fluorescence intensity (a.u.)
GGGGTGAGTGCGCATGCGTAGTGAGCTTCTGTGTTTGTTCCGGAGTCACCTAGTGCAG	8600 fluorescence intensity (a.u.)

Looked up above:
In binding signal, TCCTCGCCACCGCCGCCGTGTTCCTCTTCCACCGCCGGACCGGAGTCACCTAGTGCAG shows 8500 fluorescence intensity (a.u.)
In binding signal, TTGACTAATTTTCTGGTTACGCATTTCGATCAGGTTTCATCGGAGTCACCTAGTGCAG shows 8240 fluorescence intensity (a.u.)
In binding signal, CATCTATGACCCATTTTTTTTTATTTGACTGATACCCATCCGGAGTCACCTAGTGCAG shows 9760 fluorescence intensity (a.u.)
In binding signal, GCTTAATTACATGGGAGAGGCTTTGTTTCTTGTTTATTTTCGGAGTCACCTAGTGCAG shows 8760 fluorescence intensity (a.u.)

The results go on:

Sequence	binding signal
ATTCTTAGGTTCGCTCGCTACTACTACAAAATCAATTTTTCGGAGTCACCTAGTGCAG	8080 fluorescence intensity (a.u.)
ATGTCCCTTTCGGGTTGGGTTGCATTTGAGGGAGGCTTCACGGAGTCACCTAGTGCAG	13700 fluorescence intensity (a.u.)
GCATGGAGTTTTATTGTTTTAATTTGATGTAAATTATCTACGGAGTCACCTAGTGCAG	9320 fluorescence intensity (a.u.)
CCGGTATCCACTGCGTGCGTGCGTTGCCTGCTAGAATCCCCGGAGTCACCTAGTGCAG	9490 fluorescence intensity (a.u.)
GTGGTGACAATTTAGCATATGCATAGTTTCTGTGTGGAACCGGAGTCACCTAGTGCAG	8030 fluorescence intensity (a.u.)
TGTCAGGTCAAATCGGGGAGGCGGGGTGCGTACCAACGGTCGGAGTCACCTAGTGCAG	11900 fluorescence intensity (a.u.)
TGCCATTCTGTCGGTCTCTCTCAAGTCTCAACACATAAACCGGAGTCACCTAGTGCAG	10200 fluorescence intensity (a.u.)
ACTGCAATTCTTTGCAATTGTCTTTGCCTTTGTTCAGCCTCGGAGTCACCTAGTGCAG	8800 fluorescence intensity (a.u.)
CTTGGCTGGCATACATGGCGAGACTGCTTCCAAGAACCTCCGGAGTCACCTAGTGCAG	8190 fluorescence intensity (a.u.)
CAAATGTTGACACCTAGCTCTCACCATGCCACCTCAACTTCGGAGTCACCTAGTGCAG	8290 fluorescence intensity (a.u.)
ACACATGCATGCTGCTTTAGTCGGTTTTTTCTCTCGACTACGGAGTCACCTAGTGCAG	8330 fluorescence intensity (a.u.)
ACATCTTGTCCTCATGCCTTGCCTTTCCAACACCTTAATTCGGAGTCACCTAGTGCAG	8740 fluorescence intensity (a.u.)
TCGCAGCTCCTCTTCCCCGCCTCCTCCGTTGACCGCCACCCGGAGTCACCTAGTGCAG	12500 fluorescence intensity (a.u.)
CACACACCCGTTTTGTTCTTCAGCTGGTAGTTGTTGCAAACGGAGTCACCTAGTGCAG	9080 fluorescence intensity (a.u.)
ACTCCACTCCTAATCGCTCTTGGTCAAGACCCTGAGATCTCGGAGTCACCTAGTGCAG	8220 fluorescence intensity (a.u.)
TGCATTATATTCACGACCATGCCACATATGTAGGCACAACCGGAGTCACCTAGTGCAG	10300 fluorescence intensity (a.u.)
TTCCCTGCCATTTACGCACTGTATTATTTTTCCTGACCAACGGAGTCACCTAGTGCAG	8060 fluorescence intensity (a.u.)
CTTCTTCTTCGATCCTTTCACTCCGTGTAGTTCTTGATTTCGGAGTCACCTAGTGCAG	9580 fluorescence intensity (a.u.)
CTCAACTATCTTAATACAATTGGTTGGCTGTCCTTCGGCCCGGAGTCACCTAGTGCAG	8700 fluorescence intensity (a.u.)
GAAACCAACAGCTCAGAATTTCTCAGTCTTCTCGTTCACACGGAGTCACCTAGTGCAG	9340 fluorescence intensity (a.u.)
TCTTCTAACTGTACAATTAGTTTTTCTTTTTATTTATATTCGGAGTCACCTAGTGCAG	8860 fluorescence intensity (a.u.)
TTTGTGGGGCTCTCTCTTTGATGCTTTCTTCTCTTTAGCTCGGAGTCACCTAGTGCAG	10000 fluorescence intensity (a.u.)
TATCTGTTTTTCTTTTCAATTTTTCAGGTGTGGGATTCGTCGGAGTCACCTAGTGCAG	9080 fluorescence intensity (a.u.)
AGCAACTTAAAGTTTGTCAACACTATCACTATGCATATTCCGGAGTCACCTAGTGCAG	8870 fluorescence intensity (a.u.)
TGCCCAGCACGAATATTGCAGCAGCCGTCCCTGTCCTTTTCGGAGTCACCTAGTGCAG	8700 fluorescence intensity (a.u.)
GTAGCGTCCTTATGTTTGCTTTGTGTCCGCATCGATACCGCGGAGTCACCTAGTGCAG	11400 fluorescence intensity (a.u.)
ATATTTTCTTAATACAATCTTCGTTCATTTGACACTGATTCGGAGTCACCTAGTGCAG	8520 fluorescence intensity (a.u.)
